Our source for the binding signal values is article PMC7819943, “Rice protein-binding microarrays: a tool to detect cis-acting elements near promoter regions in rice”.

Amino acid sequences for entries named in this document (tags omitted).
UniProt Q0JBA9, entry or part of it: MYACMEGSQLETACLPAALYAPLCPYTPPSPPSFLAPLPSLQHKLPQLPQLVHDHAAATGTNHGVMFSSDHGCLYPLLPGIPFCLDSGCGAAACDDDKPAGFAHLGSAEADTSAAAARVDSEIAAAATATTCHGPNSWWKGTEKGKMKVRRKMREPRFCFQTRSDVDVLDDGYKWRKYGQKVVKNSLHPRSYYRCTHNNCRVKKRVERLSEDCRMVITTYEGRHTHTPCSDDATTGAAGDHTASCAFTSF

The other results are listed elsewhere or left out.

The experiment deals with OsWRKY34 (Oryza sativa, UniProt Q0JBA9 1-250). Description: protein-binding microarray (RPBM); PBS, 2% BSA, 51.3 ng/ul salmon testes DNA, 50 uM zinc acetate, 200 nM TF, 25 C, 1 h; high values mean tight binding. Conditions: protein: recombinant; tags: N-terminal polyhistidine and DsRed monomer fusion (pET32a); label: CyDye5-dUTP incorporated in the synthesized complementary strand; 3' TTTTT single-stranded linker to array surface; dsDNA, one strand shown. The method, boiled down: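 Binding signal is reported as fluorescence intensity per feature (arbitrary units) from an Axon 4000B scanner. Incubation used 200 nM of each Ni–NTA-purified, N-terminally polyhistidine- and DsRed-fused transcription factor from E. coli BL21-CodonPlus on a double-stranded custom Agilent array for 1 h at 25 °C, with 50 µM zinc acetate in the buffer, followed by washing.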
With “TCGATACCATTTTCAACCATACCATTTTTTACCAAAATTACGGAGTCACCTAGTGCAG”, the binding signal is 9200 fluorescence intensity (a.u.).
Then “CATCTCTTATATTTTAGGATGGCAGGGGTAATAATTAGTTCGGAGTCACCTAGTGCAG”, with 8730 fluorescence intensity (a.u.); and “AATTAAGATTGGTATTCTTATGCTTACCATGTTATCTTTTCGGAGTCACCTAGTGCAG”, with 9650 fluorescence intensity (a.u.).
With “GTTATATCTCATATTTGTTCTTTGGAACTCCTTCTTTACCCGGAGTCACCTAGTGCAG”, the binding signal is 8440 fluorescence intensity (a.u.).
The result for “GAAAGTACAAGACAACTACAAGTTCCCAGCTTTCTCTTCCCGGAGTCACCTAGTGCAG” reads 8460 fluorescence intensity (a.u.); that for “CGCTCCGGCCGCCGTCGCCCCACTTCGCCCGCTGCCCTAGCGGAGTCACCTAGTGCAG”, 9940 fluorescence intensity (a.u.).
The result for “GGTTCTAGATTGATCTATTTGTCTTTTGATGTTGCCCTCACGGAGTCACCTAGTGCAG” reads 12600 fluorescence intensity (a.u.).
For the sequence “ACTAGTGACCCTAATTTTCGGTTCGATATTTGAAATTTCCCGGAGTCACCTAGTGCAG”, the binding signal was 9030 fluorescence intensity (a.u.).
Consider “TTTTTTTATTAATTGATTTGTGGAATATTCGTTTGTTCTTCGGAGTCACCTAGTGCAG”, for which the binding signal is 8080 fluorescence intensity (a.u.).
“TTTAATGCATGACTCTTCATTCTTCCACACATGATTGGCTCGGAGTCACCTAGTGCAG”: the binding signal was 11900 fluorescence intensity (a.u.).
Regarding “ATATACTATTCTCATCTGTCATACACACATCACATCTTGACGGAGTCACCTAGTGCAG”, the binding signal was 10000 fluorescence intensity (a.u.).
Turning to “CCCATTGCCTTCCTTCTTGCCCAATTCACTCCACCATACTCGGAGTCACCTAGTGCAG”, the binding signal is 10500 fluorescence intensity (a.u.).
With “CCGCTACGCTCGCCGCGCCGCCGCTACGCTCGCCGCGCCGCGGAGTCACCTAGTGCAG”, the binding signal is 8320 fluorescence intensity (a.u.).
Take “ATCACGTCGCCTCGTTTCTTGCCTCGCCGCTCGTTGCTCGCGGAGTCACCTAGTGCAG”: the binding signal is 12200 fluorescence intensity (a.u.).
On to “CTATTTACATTTCAACTTTGATCGTCCGCCGTTTTTAAGACGGAGTCACCTAGTGCAG”, for which the binding signal was 8390 fluorescence intensity (a.u.).
The result for “ACTTGGTTTAACGTATCATCCCGGTCCAAAGCCTCGTTTGCGGAGTCACCTAGTGCAG” reads 8170 fluorescence intensity (a.u.); that for “CAATAATGATGGGGTGGTGGAGATGGTGGTGGGTTTGGTCCGGAGTCACCTAGTGCAG”, 11200 fluorescence intensity (a.u.).
The result for “AGATACATATATATTCCCATGGTTTTTTGCCCACCCAGCGCGGAGTCACCTAGTGCAG” reads 8480 fluorescence intensity (a.u.); that for “GTTTTGTGAAATTTACTCTTTTTTTCTCTCTTGGTCCACGCGGAGTCACCTAGTGCAG”, 8190 fluorescence intensity (a.u.); that for “CGTTCTTCGATCCGTACTCTGCTCCGATCGCCATTTCCTGCGGAGTCACCTAGTGCAG”, 10100 fluorescence intensity (a.u.).
The result for “CAATTCCAGCCCGTCTCTTATCTCTCTCGTGTCTTCTTCACGGAGTCACCTAGTGCAG” reads 8370 fluorescence intensity (a.u.); that for “GTTGTAGTTTCTTGAATCACCCTGCCCAGTTAGTGCTTATCGGAGTCACCTAGTGCAG”, 8250 fluorescence intensity (a.u.); that for “ACTCTATATCGTTCCACATCCGTCTATATGATATCTTTATCGGAGTCACCTAGTGCAG”, 9750 fluorescence intensity (a.u.).
In the case of “TAGAACTCTGGTTGTCTTTCCTTATCCGGAACTCCTCATACGGAGTCACCTAGTGCAG”, the binding signal is 10200 fluorescence intensity (a.u.).
The result for “TATCACGATATTCTACCTCGCTCTCATGGGCTAGATCACCCGGAGTCACCTAGTGCAG” reads 9500 fluorescence intensity (a.u.); that for “TAGCCTCAGACGTCTCATCCTTATCGCCTCGCCTCTCGATCGGAGTCACCTAGTGCAG”, 9530 fluorescence intensity (a.u.).
Consider “TGGTCCTGATTTATTTGGTACAAACATACTTCTACGTTACCGGAGTCACCTAGTGCAG”, for which the binding signal was 8320 fluorescence intensity (a.u.).
Then “TCACAACTCAATTAACCATACACTAATTACTTTCGCATCCCGGAGTCACCTAGTGCAG”, with 8110 fluorescence intensity (a.u.); and “GTCGCGCCTGACGCCGCCGTTGCGCCTGCCACCGCCTGTCCGGAGTCACCTAGTGCAG”, with 8220 fluorescence intensity (a.u.).
As to “CCGCGCGCGGTCCACCTGGCTGATGCTCTTCCCGGCGTACCGGAGTCACCTAGTGCAG”, the binding signal is 8810 fluorescence intensity (a.u.).
For the sequence “AGGGAAGAGTGGATTCGGAGTACTCCATGCATATCGGCGCCGGAGTCACCTAGTGCAG”, the binding signal was 11500 fluorescence intensity (a.u.).
Then “CCTCGTTTTGCGTATCTTTCCAATCTCCTCAATCCTCTTCCGGAGTCACCTAGTGCAG”, with 8030 fluorescence intensity (a.u.); and “GTGCTATCCCTATACCTATTATCGTGGTAATTTTTTTTTGCGGAGTCACCTAGTGCAG”, with 10200 fluorescence intensity (a.u.); and “ATATAAGGGATTTTGAGTTTTTGATTGCAACGTTTGACCACGGAGTCACCTAGTGCAG”, with 8550 fluorescence intensity (a.u.).
Then “TATGTTCTTCAGGATACTTGCTGTTTGTCACACTGCAATTCGGAGTCACCTAGTGCAG”, with 9110 fluorescence intensity (a.u.); and “CTCTTCACCATTCAACTCCTCCCATGCATATGTTTCACAACGGAGTCACCTAGTGCAG”, with 8290 fluorescence intensity (a.u.); and “CACTTTATTTAATCTTAATATATTTATCTCATGGTTTTATCGGAGTCACCTAGTGCAG”, with 8810 fluorescence intensity (a.u.).
The result for “CTCTTTTTTTTTCTTCCACTACGCTCCAAAACTTCTCTCCCGGAGTCACCTAGTGCAG” reads 8790 fluorescence intensity (a.u.); that for “AATGTTATTGTATTTTTCTACGAACGTAGTCAAACTTGAACGGAGTCACCTAGTGCAG”, 8760 fluorescence intensity (a.u.); that for “CGCGGCGACGATACCCGCCATTTTCATCTCATTCTCACCACGGAGTCACCTAGTGCAG”, 8200 fluorescence intensity (a.u.).
“CTTGGCTTTGTGTGTTGCGGCAGATTGGATTCTATTCTAACGGAGTCACCTAGTGCAG”: the binding signal was 9160 fluorescence intensity (a.u.).
Consider “TCGGAAACGGCAGAGTTTGATTTGGATTGTTTTGTCTTTCCGGAGTCACCTAGTGCAG”, for which the binding signal is 10100 fluorescence intensity (a.u.).
